Reference: the supplement of paper PMC10849652
The other results are listed elsewhere or left out.

Protein sequences, listed by entry. Tags and fused reporters are not part of them. Lines headed by an entry give the natural chain unless they say otherwise; changes in a name come on top.
UniProt Q8IZ69: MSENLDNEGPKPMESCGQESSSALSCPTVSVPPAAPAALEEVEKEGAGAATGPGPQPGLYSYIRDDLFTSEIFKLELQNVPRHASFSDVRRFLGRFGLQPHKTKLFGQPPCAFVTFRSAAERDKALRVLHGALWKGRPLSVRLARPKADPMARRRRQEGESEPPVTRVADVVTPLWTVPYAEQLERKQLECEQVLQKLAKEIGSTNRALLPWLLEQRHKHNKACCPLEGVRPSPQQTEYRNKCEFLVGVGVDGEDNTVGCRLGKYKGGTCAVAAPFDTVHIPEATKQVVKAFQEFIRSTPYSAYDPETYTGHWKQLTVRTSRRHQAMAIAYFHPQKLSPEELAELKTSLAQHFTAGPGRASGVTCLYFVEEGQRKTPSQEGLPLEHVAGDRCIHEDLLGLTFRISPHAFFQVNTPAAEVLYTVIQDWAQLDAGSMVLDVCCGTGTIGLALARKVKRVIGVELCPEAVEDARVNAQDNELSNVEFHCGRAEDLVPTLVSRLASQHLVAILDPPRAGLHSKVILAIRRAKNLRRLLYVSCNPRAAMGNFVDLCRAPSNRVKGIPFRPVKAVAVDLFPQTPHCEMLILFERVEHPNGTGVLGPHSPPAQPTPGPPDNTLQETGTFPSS
UniProt P07951, whole entry, looked up: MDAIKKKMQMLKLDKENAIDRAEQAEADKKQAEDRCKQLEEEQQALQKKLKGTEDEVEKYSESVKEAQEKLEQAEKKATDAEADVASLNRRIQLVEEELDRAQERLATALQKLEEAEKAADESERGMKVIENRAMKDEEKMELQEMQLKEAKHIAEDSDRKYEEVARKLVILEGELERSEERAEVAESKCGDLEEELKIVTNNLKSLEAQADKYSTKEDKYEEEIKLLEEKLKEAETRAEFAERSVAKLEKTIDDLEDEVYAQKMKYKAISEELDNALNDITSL
UniProt P11388: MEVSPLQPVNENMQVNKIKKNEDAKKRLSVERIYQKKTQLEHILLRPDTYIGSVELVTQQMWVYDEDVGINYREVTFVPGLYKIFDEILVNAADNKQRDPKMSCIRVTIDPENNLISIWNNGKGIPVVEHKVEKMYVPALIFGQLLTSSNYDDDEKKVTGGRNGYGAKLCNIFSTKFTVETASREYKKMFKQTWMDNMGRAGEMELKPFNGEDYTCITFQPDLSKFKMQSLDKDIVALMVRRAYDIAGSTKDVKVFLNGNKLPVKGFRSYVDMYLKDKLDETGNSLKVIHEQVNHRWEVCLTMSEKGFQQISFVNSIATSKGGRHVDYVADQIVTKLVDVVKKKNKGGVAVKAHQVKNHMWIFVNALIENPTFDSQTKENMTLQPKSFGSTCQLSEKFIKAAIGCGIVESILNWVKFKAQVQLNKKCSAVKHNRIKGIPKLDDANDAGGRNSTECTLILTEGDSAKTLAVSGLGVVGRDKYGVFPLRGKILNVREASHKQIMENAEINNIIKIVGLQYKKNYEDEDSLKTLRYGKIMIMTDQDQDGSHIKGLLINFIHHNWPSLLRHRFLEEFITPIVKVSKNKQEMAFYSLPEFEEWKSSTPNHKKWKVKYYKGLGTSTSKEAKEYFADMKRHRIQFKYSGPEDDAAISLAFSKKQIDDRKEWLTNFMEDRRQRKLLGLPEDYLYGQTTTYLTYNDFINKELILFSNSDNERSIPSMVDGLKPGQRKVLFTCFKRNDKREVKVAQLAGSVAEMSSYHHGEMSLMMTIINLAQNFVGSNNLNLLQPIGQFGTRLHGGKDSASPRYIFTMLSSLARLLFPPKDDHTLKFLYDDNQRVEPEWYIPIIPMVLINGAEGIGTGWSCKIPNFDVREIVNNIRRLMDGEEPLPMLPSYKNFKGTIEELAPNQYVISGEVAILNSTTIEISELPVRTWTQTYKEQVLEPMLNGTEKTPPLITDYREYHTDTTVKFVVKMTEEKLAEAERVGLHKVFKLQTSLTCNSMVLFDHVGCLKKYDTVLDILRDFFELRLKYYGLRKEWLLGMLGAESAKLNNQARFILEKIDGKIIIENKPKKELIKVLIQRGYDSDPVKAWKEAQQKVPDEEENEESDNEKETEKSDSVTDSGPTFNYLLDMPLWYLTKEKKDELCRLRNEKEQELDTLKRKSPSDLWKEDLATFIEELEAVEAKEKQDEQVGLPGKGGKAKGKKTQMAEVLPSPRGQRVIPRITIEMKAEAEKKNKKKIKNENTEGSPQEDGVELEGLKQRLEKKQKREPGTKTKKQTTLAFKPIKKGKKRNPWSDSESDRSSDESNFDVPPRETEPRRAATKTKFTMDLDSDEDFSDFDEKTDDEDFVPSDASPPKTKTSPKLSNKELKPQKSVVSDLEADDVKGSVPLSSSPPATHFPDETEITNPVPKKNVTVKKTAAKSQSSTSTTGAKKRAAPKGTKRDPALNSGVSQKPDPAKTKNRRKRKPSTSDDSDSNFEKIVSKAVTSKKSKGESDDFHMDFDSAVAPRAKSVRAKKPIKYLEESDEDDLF
UniProt Q8NCE0: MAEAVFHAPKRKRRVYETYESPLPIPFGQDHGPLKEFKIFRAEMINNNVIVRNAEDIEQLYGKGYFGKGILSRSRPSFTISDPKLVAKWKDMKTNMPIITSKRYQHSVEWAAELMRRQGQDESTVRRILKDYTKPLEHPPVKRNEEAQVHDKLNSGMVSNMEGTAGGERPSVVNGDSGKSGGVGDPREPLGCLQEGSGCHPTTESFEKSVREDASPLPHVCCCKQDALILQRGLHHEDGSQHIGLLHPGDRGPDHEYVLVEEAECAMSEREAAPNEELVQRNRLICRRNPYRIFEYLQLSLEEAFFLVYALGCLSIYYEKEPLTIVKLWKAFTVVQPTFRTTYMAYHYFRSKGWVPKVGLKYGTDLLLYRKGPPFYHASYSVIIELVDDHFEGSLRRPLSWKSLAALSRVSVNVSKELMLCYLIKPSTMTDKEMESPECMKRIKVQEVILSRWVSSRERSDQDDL
UniProt O95900: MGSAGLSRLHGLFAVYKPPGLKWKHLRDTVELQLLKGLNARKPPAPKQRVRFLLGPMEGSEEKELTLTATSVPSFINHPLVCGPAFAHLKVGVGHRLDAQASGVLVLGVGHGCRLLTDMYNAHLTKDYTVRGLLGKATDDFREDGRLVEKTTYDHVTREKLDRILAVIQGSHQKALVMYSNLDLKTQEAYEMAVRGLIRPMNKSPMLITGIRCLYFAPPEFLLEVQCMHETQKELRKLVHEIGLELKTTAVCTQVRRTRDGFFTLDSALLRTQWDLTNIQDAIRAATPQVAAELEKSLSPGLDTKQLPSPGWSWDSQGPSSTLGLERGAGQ
UniProt Q86SZ2: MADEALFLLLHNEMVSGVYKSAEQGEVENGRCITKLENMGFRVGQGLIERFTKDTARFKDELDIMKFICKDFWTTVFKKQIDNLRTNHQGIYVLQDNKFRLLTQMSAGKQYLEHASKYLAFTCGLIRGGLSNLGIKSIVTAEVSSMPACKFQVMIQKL
UniProt Q92574: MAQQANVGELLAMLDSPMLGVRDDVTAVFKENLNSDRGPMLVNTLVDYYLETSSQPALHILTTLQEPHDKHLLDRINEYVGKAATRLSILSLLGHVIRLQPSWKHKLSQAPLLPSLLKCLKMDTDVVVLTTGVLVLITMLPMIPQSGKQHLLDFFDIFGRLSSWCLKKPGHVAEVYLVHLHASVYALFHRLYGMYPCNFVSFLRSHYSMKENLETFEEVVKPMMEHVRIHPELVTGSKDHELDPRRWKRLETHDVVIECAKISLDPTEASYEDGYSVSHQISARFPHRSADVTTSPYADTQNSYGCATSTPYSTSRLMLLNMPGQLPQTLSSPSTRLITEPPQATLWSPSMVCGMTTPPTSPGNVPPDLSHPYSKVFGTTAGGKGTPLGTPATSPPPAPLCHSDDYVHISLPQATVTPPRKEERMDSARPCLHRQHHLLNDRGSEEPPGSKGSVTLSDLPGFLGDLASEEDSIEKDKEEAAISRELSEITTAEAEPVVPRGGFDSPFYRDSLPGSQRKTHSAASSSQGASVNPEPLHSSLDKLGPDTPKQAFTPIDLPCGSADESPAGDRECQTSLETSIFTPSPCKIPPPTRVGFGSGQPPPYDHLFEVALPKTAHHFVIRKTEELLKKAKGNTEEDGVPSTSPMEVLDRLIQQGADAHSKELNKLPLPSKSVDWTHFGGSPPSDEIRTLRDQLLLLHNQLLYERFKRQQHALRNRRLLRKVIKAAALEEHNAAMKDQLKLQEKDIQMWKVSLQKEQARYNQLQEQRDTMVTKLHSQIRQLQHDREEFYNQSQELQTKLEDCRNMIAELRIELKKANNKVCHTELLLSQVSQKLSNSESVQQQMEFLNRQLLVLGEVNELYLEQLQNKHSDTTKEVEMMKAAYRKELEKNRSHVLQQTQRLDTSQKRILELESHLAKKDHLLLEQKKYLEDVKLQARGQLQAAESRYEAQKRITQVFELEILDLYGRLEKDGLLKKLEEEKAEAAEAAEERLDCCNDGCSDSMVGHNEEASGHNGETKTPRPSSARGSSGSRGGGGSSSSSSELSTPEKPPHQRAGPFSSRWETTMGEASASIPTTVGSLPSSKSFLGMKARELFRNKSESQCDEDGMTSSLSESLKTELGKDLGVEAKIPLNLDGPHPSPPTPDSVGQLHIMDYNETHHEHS
UniProt O15164: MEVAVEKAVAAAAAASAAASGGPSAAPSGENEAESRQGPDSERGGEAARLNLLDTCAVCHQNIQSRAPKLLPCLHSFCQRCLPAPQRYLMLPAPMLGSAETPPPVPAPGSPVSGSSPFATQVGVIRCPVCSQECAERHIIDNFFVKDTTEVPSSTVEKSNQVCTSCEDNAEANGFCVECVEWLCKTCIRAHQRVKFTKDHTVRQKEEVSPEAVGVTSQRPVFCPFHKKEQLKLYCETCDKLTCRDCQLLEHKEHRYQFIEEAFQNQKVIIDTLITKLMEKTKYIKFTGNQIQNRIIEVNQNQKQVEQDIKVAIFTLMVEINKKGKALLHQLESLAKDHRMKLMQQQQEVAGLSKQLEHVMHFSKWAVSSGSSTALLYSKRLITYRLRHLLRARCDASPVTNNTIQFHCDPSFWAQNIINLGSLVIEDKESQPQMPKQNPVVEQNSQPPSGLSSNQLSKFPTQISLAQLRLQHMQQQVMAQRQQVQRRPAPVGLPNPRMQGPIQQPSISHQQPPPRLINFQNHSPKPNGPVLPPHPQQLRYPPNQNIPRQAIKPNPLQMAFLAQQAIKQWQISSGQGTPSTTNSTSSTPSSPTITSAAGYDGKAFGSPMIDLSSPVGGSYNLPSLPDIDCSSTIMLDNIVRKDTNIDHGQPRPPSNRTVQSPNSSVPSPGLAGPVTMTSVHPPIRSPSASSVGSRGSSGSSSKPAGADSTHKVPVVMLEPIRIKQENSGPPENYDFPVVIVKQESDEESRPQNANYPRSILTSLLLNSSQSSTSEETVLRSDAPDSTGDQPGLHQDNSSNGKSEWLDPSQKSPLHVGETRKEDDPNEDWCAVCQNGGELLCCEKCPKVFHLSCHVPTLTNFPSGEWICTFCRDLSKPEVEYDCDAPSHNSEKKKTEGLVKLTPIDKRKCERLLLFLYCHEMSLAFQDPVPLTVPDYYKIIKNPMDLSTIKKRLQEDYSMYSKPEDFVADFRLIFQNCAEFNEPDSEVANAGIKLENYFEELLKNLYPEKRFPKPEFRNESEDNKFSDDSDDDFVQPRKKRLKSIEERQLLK
UniProt Q15642: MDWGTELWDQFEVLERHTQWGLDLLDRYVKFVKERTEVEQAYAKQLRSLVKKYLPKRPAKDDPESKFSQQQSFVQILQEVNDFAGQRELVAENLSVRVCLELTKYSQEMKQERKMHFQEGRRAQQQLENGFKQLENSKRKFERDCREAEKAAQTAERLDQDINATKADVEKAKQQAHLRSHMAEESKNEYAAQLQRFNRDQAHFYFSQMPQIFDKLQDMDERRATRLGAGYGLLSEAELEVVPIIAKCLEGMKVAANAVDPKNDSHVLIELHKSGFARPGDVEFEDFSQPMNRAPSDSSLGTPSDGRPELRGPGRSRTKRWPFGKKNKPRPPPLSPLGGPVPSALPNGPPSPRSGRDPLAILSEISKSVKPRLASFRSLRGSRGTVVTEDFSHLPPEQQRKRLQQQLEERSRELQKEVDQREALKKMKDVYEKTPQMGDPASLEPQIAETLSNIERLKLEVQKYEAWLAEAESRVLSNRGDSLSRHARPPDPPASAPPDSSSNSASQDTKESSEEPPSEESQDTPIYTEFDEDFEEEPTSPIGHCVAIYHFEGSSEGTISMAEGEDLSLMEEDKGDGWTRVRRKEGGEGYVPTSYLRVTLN

Assays:
Assay in all cases: log2 fold change, soluble protein after heating vs DMSO (PISA); higher = thermal stabilisation; K562 cells, 10 uM, 30 min; active = over 0.2 and 3.5 SD of the protein, either way, in both replicates (recomputed)
saracatinib = compound: CN1CCN(CCOc2cc(OC3CCOCC3)c3c(Nc4c(Cl)ccc5c4OCO5)ncnc3c2)CC1 [saracatinib]
Method in brief: (§1)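 Quantification of soluble protein used TMTpro 16plex LC-MS/MS, with channel sums equalised. Samples were the supernatant after 21,000xg for 90 min of pooled aliquots from K562 cells (2×10^6 cells/mL) treated with 10 μM compound for 30 min, heated for 3 min over 48°C-58°C, and extracted in PBS with 0.5% NP-40 at 4°C. Values, from duplicates, describe thermal stability against control samples on a log2 fold-change scale.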

sotrastaurin = compound: CN1CCN(c2nc(C3=C(c4c[nH]c5ccccc45)C(=O)NC3=O)c3ccccc3n2)CC1 [sotrastaurin]
Method in brief: as §1

Tubastatin A = compound: CN1CCc2c(c3ccccc3n2Cc2ccc(C(=O)NO)cc2)C1 [Tubastatin A]
Method in brief: as §1

[1] = compound: CNC(=O)C1=CC=CC=C1NC2=NC(=NC=C2Cl)NC3=C(C=C(C=C3)N4CCOCC4)OC
Method in brief: as §1

defactinib = compound: CNC(=O)c1ccc(Nc2ncc(C(F)(F)F)c(NCc3nccnc3N(C)S(C)(=O)=O)n2)cc1 [defactinib]
Method in brief: as §1

rucaparib = compound: CNCc1ccc(-c2[nH]c3cc(F)cc4c3c2CCNC4=O)cc1 [rucaparib]
Method in brief: as §1

[2] = compound: CNc1nc(-c2ccc3c(N)n[nH]c3c2)cc(N2C[C@@H](C(=O)NC3CCCCC3)CC[C@H]2C)n1
Method in brief: as §1

encorafenib = compound: COC(=O)N[C@@H](C)CNc1nccc(-c2cn(C(C)C)nc2-c2cc(Cl)cc(NS(C)(=O)=O)c2F)n1 [encorafenib]
Method in brief: as §1

[3] = compound: COC(=O)[C@H](CCSC)NC(=O)C1=C(C=C(C=C1)NC[C@H](CS)N)C2=CC=CC=C2
Method in brief: as §1

[4] = compound: COC1=CC=C(C=C1)CN2C=CC3=C2C=C(C=C3)C(=O)NO
Method in brief: as §1

filanesib = compound: CON(C)C(=O)N1N=C(c2cc(F)ccc2F)S[C@@]1(CCCN)c1ccccc1 [filanesib]
Method in brief: as §1

zotarolimus = compound: CO[C@H]1C[C@@H]2CC[C@@H](C)[C@@](O)(O2)C(=O)C(=O)N2CCCC[C@H]2C(=O)O[C@H]([C@H](C)C[C@@H]2CC[C@H](n3cnnn3)[C@H](OC)C2)CC(=O)[C@H](C)/C=C(\C)[C@@H](O)[C@@H](OC)C(=O)[C@H](C)C[C@H](C)/C=C/C=C/C=C/1C [zotarolimus]
Method in brief: as §1

idasanutlin = compound: COc1cc(C(=O)O)ccc1NC(=O)[C@@H]1N[C@@H](CC(C)(C)C)[C@](C#N)(c2ccc(Cl)cc2F)[C@H]1c1cccc(Cl)c1F [idasanutlin]
Method in brief: as §1

alisertib = compound: COc1cc(Nc2ncc3c(n2)-c2ccc(Cl)cc2C(c2c(F)cccc2OC)=NC3)ccc1C(=O)O [alisertib]
Method in brief: as §1

[5] = compound: COc1cc2nc(-c3cc(F)ccc3O)nc(N[C@@H]3CNC[C@H]3C(C)(C)O)c2cc1OC
Method in brief: as §1

gefitinib = compound: COc1cc2ncnc(Nc3ccc(F)c(Cl)c3)c2cc1OCCCN1CCOCC1 [gefitinib]
Method in brief: as §1

[6] = compound: COc1cccc2cc(-c3nc([C@H]4CC[C@H](C(=O)O)CC4)n4ncnc(N)c34)[nH]c12
Method in brief: as §1

lapatinib = compound: CS(=O)(=O)CCNCc1ccc(-c2ccc3ncnc(Nc4ccc(OCc5cccc(F)c5)c(Cl)c4)c3c2)o1 [lapatinib]
Method in brief: as §1

pictilisib = compound: CS(=O)(=O)N1CCN(Cc2cc3nc(-c4cccc5[nH]ncc45)nc(N4CCOCC4)c3s2)CC1 [pictilisib]
Method in brief: as §1

alvocidib = compound: CN1CC[C@H](c2c(O)cc(O)c3c(=O)cc(-c4ccccc4Cl)oc23)[C@H](O)C1 [alvocidib]
Method in brief: as §1

Target | log2 fold change (saracatinib) | log2 fold change (sotrastaurin) | log2 fold change (Tubastatin A) | log2 fold change [1] | log2 fold change (defactinib) | log2 fold change (rucaparib) | log2 fold change [2] | log2 fold change (encorafenib) | log2 fold change [3] | log2 fold change [4] | log2 fold change (filanesib) | log2 fold change (zotarolimus) | log2 fold change (idasanutlin) | log2 fold change (alisertib) | log2 fold change [5] | log2 fold change (gefitinib) | log2 fold change [6] | log2 fold change (lapatinib) | log2 fold change (pictilisib) | log2 fold change (alvocidib)
TRMT2A (UniProt Q8IZ69) | inactive: -0.011 | inactive: -0.076 | inactive: -0.005 | inactive: -0.049 | inactive: -0.031 | inactive: 0.084 | inactive: 0.094 | inactive: 0.056 | inactive: -0.094 | active: -0.322 | inactive: 0.061 | inactive: 0.016 | inactive: 0.04 | inactive: -0.051 | inactive: -0.158 | inactive: -0.006 | inactive: -0.071 | inactive: 0.016 | inactive: -0.096 | 
TRPM4 (UniProt Q8TD43) | inactive: -0.003 | inactive: 0.217 |  |  |  |  | inactive: 0.051 |  |  |  | inactive: 0.066 |  |  |  |  |  |  |  |  | 
TPM2 (UniProt P07951) | inactive: 0.177 | inactive: -0.033 | inactive: -0.012 | inactive: 0.004 | inactive: 0.042 | inactive: -0.027 | inactive: -0.026 | inactive: -0.006 | inactive: 0.102 | active: 0.503 | inactive: -0.024 | inactive: 0.013 | inactive: -0.026 | inactive: -0.058 | inactive: -0.055 | inactive: -0.003 | inactive: -0.14 | inactive: 0.166 | inactive: -0.181 | 
TOP2A isoform 4 (UniProt P11388) | inactive: -0.168 | inactive: 0.006 | inactive: 0.103 | inactive: 0.102 | inactive: 0.438 | inactive: 0.434 | inactive: 0.273 | inactive: 0.288 | inactive: -0.086 | inactive: 0.052 | inactive: 0.486 | inactive: 0.079 | inactive: 0.24 | inactive: -0.144 | inactive: -0.029 | inactive: -0.042 | inactive: -0.4 | inactive: 0.13 | inactive: -0.071 | 
TSEN2 (UniProt Q8NCE0) | inactive: -0.014 | inactive: -0.186 | inactive: -0.024 | inactive: -0.042 | inactive: -0.009 | inactive: 0.007 | inactive: -0.005 | inactive: -0.068 | inactive: -0.049 | inactive: 0.018 | inactive: 0.043 | inactive: 0 | inactive: -0.065 | inactive: -0.075 | inactive: 0.077 | inactive: 0.028 | inactive: 0.114 | inactive: -0.015 | inactive: 0.013 | 
TRUB2 (UniProt O95900) | inactive: -0.037 | inactive: 0.083 |  | inactive: 0.04 |  |  | inactive: -0.064 |  |  | inactive: -0.171 | inactive: 0.061 |  |  |  | inactive: -0.195 |  |  | inactive: 0.096 | inactive: -0.144 | 
TRAPPC6B (UniProt Q86SZ2) | inactive: 0.035 | inactive: -0.068 | inactive: 0.031 | inactive: -0.034 | inactive: -0.046 | inactive: 0.012 | inactive: 0.008 | inactive: -0.02 | inactive: 0.022 | inactive: 0.055 | inactive: -0.023 | inactive: 0.012 | inactive: -0.023 | inactive: -0.009 | inactive: -0.003 | inactive: 0.042 | inactive: 0.028 | inactive: 0.019 | inactive: 0.02 | 
TSC1 (UniProt Q92574) | inactive: -0.066 |  | inactive: 0.193 | inactive: 0.147 | inactive: -0.267 | inactive: 0.17 | inactive: 0.036 | inactive: 0.017 | inactive: 0.054 | inactive: 0.187 |  | inactive: 0.184 | inactive: 0.09 |  | inactive: -0.123 |  |  | inactive: 0.043 |  | inactive: -0.128
TRIM24 (UniProt O15164) | inactive: -0.094 | inactive: -0.152 | inactive: 0.09 | inactive: -0.12 | inactive: -0.01 | inactive: 0.097 | inactive: -0.061 | inactive: 0.127 | inactive: 0.01 | inactive: 0.049 | inactive: -0.085 |  | inactive: -0.207 | inactive: 0.011 | inactive: 0.078 | inactive: 0.197 | inactive: -0.021 | inactive: -0.025 | inactive: 0.06 | 
TRIP10 isoform 2 (UniProt Q15642) | inactive: 0.021 | inactive: 0.151 | inactive: 0.051 | inactive: -0.258 | inactive: -0.196 | inactive: 0.071 | inactive: -0.081 | inactive: -0.147 | inactive: -0.246 | inactive: -0.032 | inactive: -0.213 | inactive: 0.013 | inactive: 0.128 | inactive: -0.029 | inactive: 0.109 | inactive: 0.062 | inactive: -0.09 | inactive: -0.083 | inactive: 0.06 | 
TNIK isoform 3 (UniProt Q9UKE5) | inactive: -0.081 |  | inactive: 0.023 | inactive: 0.006 | inactive: -0.074 | inactive: -0.091 | inactive: 0.015 | inactive: 0.005 | inactive: 0.047 | inactive: -0.021 |  | inactive: -0.07 | inactive: -0.067 | inactive: -0.054 | inactive: 0.058 |  | inactive: 0.026 | inactive: -0.01 | inactive: -0.005 | inactive: -0.114

3 entries from above in a different format:
Target	log2 fold change (saracatinib)	log2 fold change (sotrastaurin)	log2 fold change (Tubastatin A)	log2 fold change [1]	log2 fold change (defactinib)	log2 fold change (rucaparib)	log2 fold change [2]	log2 fold change (encorafenib)	log2 fold change [3]	log2 fold change [4]	log2 fold change (filanesib)	log2 fold change (zotarolimus)	log2 fold change (idasanutlin)	log2 fold change (alisertib)	log2 fold change [5]	log2 fold change (gefitinib)	log2 fold change [6]	log2 fold change (lapatinib)	log2 fold change (pictilisib)	log2 fold change (alvocidib)
TRUB2 (UniProt O95900)	inactive: -0.037	inactive: 0.083		inactive: 0.04			inactive: -0.064			inactive: -0.171	inactive: 0.061				inactive: -0.195			inactive: 0.096	inactive: -0.144	
TRAPPC6B (UniProt Q86SZ2)	inactive: 0.035	inactive: -0.068	inactive: 0.031	inactive: -0.034	inactive: -0.046	inactive: 0.012	inactive: 0.008	inactive: -0.02	inactive: 0.022	inactive: 0.055	inactive: -0.023	inactive: 0.012	inactive: -0.023	inactive: -0.009	inactive: -0.003	inactive: 0.042	inactive: 0.028	inactive: 0.019	inactive: 0.02	
TSC1 (UniProt Q92574)	inactive: -0.066		inactive: 0.193	inactive: 0.147	inactive: -0.267	inactive: 0.17	inactive: 0.036	inactive: 0.017	inactive: 0.054	inactive: 0.187		inactive: 0.184	inactive: 0.09		inactive: -0.123			inactive: 0.043		inactive: -0.128
